Molecules are shown by their SMILES. This is one part of the list. Single values are uncertain, as repeats are few or missing.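 Imaging used 1,536-well plates; nuclei positive for cleaved PARP by antibody were divided by total DNA-stained nuclei to yield the apoptosis fraction. Doses for screening kept most cells viable, and cell lines differ markedly in resting and induced cleaved-PARP levels.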

The experiment has as its system SkMel2. The experiment can be described thus: cleaved PARP positive nuclei fraction relative to DMSO control; melanoma cells; higher = more apoptosis. The following applies: library dose: low library concentration; 72 h.
In the case of `O=c1[nH]nc(Sc2ncc([N+](=O)[O-])s2)n1-c1ccc2c(c1)OCCO2` + COc1ccc(COc2ccc(Cc3cnc(N)nc3N)cc2OC)cc1 [GW2580] (first compound 0.2 µM, partner dose 1 µM), the “cleaved PARP positive nuclei fraction” value was 73.5%.

With `COc1cc([C@@H]2c3cc4c(cc3[C@@H](O[C@@H]3O[C@@H]5CO[C@@H](C)O[C@H]5[C@H](O)[C@H]3O)[C@H]3COC(=O)[C@H]23)OCO4)cc(OC)c1O` [etoposide] + O=S(=O)(c1ccccc1)N(CC(F)(F)F)c1ccc(C(O)(C(F)(F)F)C(F)(F)F)cc1 [T0901317] (first compound 0.02 µM, partner dose 1.4 µM), the “cleaved PARP positive nuclei fraction” value stood at 24.3%. To `O=c1[nH]nc(Sc2ncc([N+](=O)[O-])s2)n1-c1ccc2c(c1)OCCO2` + O=S(=O)(c1ccccc1)N(CC(F)(F)F)c1ccc(C(O)(C(F)(F)F)C(F)(F)F)cc1 [T0901317] (first compound 0.2 µM, partner dose 1.4 µM) belongs 137%. With `Cc1cc(Nc2cc(N3CCN(C)CC3)nc(Sc3ccc(NC(=O)C4CC4)cc3)n2)n[nH]1` [Tozasertib] + Cn1cncc1[C@@](N)(c1ccc(Cl)cc1)c1ccc2c(c1)c(-c1cccc(Cl)c1)cc(=O)n2C [tipifarnib] (first compound 0.006 µM, partner dose 0.01 µM), the “cleaved PARP positive nuclei fraction” value is 131%. As for `CC[C@]1(O)C[C@H]2CN(CCc3c([nH]c4ccccc34)[C@@](C(=O)OC)(c3cc4c(cc3OC)N(C=O)[C@H]3[C@@](O)(C(=O)OC)[C@H](OC(C)=O)[C@]5(CC)C=CCN6CC[C@]43[C@@H]65)C2)C1` [vincristine] + c1cc(-c2cnn3cc(-c4ccc(OCCN5CCCCC5)cc4)cnc23)ccn1 [Dorsomorphin] (first compound 0.0001 µM, partner dose 0.4 µM), the “cleaved PARP positive nuclei fraction” value came out at 45.9%. To `Cc1ccc(Nc2nccc(N(C)c3ccc4c(C)n(C)nc4c3)n2)cc1S(N)(=O)=O` [Pazopanib] + CN(NC(=O)CC(=O)NN(C)C(=S)c1ccccc1)C(=S)c1ccccc1 [STA4783] (first compound 0.4 µM, partner dose 0.006 µM) belongs 27.3%; to `Cc1cn(-c2cc(NC(=O)c3ccc(C)c(Nc4nccc(-c5cccnc5)n4)c3)cc(C(F)(F)F)c2)cn1` [nilotinib] + COc1ccc(COc2ccc(Cc3cnc(N)nc3N)cc2OC)cc1 [GW2580] (first compound 0.2 µM, partner dose 1 µM), 88.7%; to `COc1cc([C@@H]2c3cc4c(cc3[C@@H](O[C@@H]3O[C@@H]5CO[C@@H](C)O[C@H]5[C@H](O)[C@H]3O)[C@H]3COC(=O)[C@H]23)OCO4)cc(OC)c1O` [etoposide] + C[C@@H]1CCN(C(=O)CC#N)C[C@@H]1N(C)c1ncnc2[nH]ccc12 [CP690550] (first compound 0.02 µM, partner dose 1 µM), 117%. As for `Cc1cn(-c2cc(NC(=O)c3ccc(C)c(Nc4nccc(-c5cccnc5)n4)c3)cc(C(F)(F)F)c2)cn1` [nilotinib] + Cn1cc(/C=C2\C(=O)Nc3cccnc32)c2ccccc21 [GW441756] (first compound 0.2 µM, partner dose 0.4 µM), the “cleaved PARP positive nuclei fraction” value was 19.7%. Consider `Cc1cn(-c2cc(NC(=O)c3ccc(C)c(Nc4nccc(-c5cccnc5)n4)c3)cc(C(F)(F)F)c2)cn1` [nilotinib] + O=c1cc(-c2cccc3c2Sc2ccccc2S3)oc(N2CCOCC2)c1 [KU55933] (first compound 0.2 µM, partner dose 1 µM), for which the “cleaved PARP positive nuclei fraction” value is 75.7%.

Take `CC[C@]1(O)C[C@H]2CN(CCc3c([nH]c4ccccc34)[C@@](C(=O)OC)(c3cc4c(cc3OC)N(C=O)[C@H]3[C@@](O)(C(=O)OC)[C@H](OC(C)=O)[C@]5(CC)C=CCN6CC[C@]43[C@@H]65)C2)C1` [vincristine] + NC(=O)Nc1cc(-c2cccc(F)c2)sc1C(=O)N[C@H]1CCCNC1 [AZD7762] (first compound 0.0001 µM, partner dose 0.02 µM): the “cleaved PARP positive nuclei fraction” value was found to be 152%. In the case of `CCCCCCCCCCCCCCCCCCOP(=O)([O-])OC1CC[N+](C)(C)CC1` [Perifosine] + COc1ccc2c(c1)CCC1C2CCC2(C)C(NCCCCCCN3C(=O)C=CC3=O)CCC12 [U73122] (first compound 0.4 µM, partner dose 0.4 µM), the “cleaved PARP positive nuclei fraction” value came out at 118%.

Consider `Cc1cn(-c2cc(NC(=O)c3ccc(C)c(Nc4nccc(-c5cccnc5)n4)c3)cc(C(F)(F)F)c2)cn1` [nilotinib] + Cc1ccc(NC(=O)c2cccc(N(C)C)c2)cc1NC(=O)c1ccc(O)cc1 [ZM336372] (first compound 0.2 µM, partner dose 2 µM), for which the “cleaved PARP positive nuclei fraction” value is 78.1%. On to `CC[C@]1(O)C[C@H]2CN(CCc3c([nH]c4ccccc34)[C@@](C(=O)OC)(c3cc4c(cc3OC)N(C=O)[C@H]3[C@@](O)(C(=O)OC)[C@H](OC(C)=O)[C@]5(CC)C=CCN6CC[C@]43[C@@H]65)C2)C1` [vincristine] + O=C(Nc1cccc(Cl)c1)Nc1ncc(CCNc2ncnc3ccsc23)s1 [SNS314] (first compound 0.0001 µM, partner dose 0.0008 µM), for which the “cleaved PARP positive nuclei fraction” value stood at 63.3%. To `Cc1ccc(Nc2nccc(N(C)c3ccc4c(C)n(C)nc4c3)n2)cc1S(N)(=O)=O` [Pazopanib] + O=C(Nc1cccc(Cl)c1)Nc1ncc(CCNc2ncnc3ccsc23)s1 [SNS314] (first compound 0.4 µM, partner dose 0.0008 µM) belongs 82.7%; to `CC[C@]1(O)C[C@H]2CN(CCc3c([nH]c4ccccc34)[C@@](C(=O)OC)(c3cc4c(cc3OC)N(C=O)[C@H]3[C@@](O)(C(=O)OC)[C@H](OC(C)=O)[C@]5(CC)C=CCN6CC[C@]43[C@@H]65)C2)C1` [vincristine] + COc1ccc(-c2ccc3c(N4CCOCC4)nc(N4C[C@@H](C)O[C@@H](C)C4)nc3n2)cc1CO [KU0063794] (first compound 0.0001 µM, partner dose 0.02 µM), 294%. In the case of `O=c1[nH]nc(Sc2ncc([N+](=O)[O-])s2)n1-c1ccc2c(c1)OCCO2` + COc1cc(Nc2ncc(F)c(Nc3ccc4c(n3)NC(=O)C(C)(C)O4)n2)cc(OC)c1OC [Tamatinib] (first compound 0.2 µM, partner dose 0.4 µM) it was 87%. To `O=C(/C=C/c1cccnc1)NCCCCC1CCN(C(=O)c2ccccc2)CC1` + Cc1cc(N2CCOCC2)cc2[nH]c(-c3c(NC[C@@H](O)c4cccc(Cl)c4)cc[nH]c3=O)nc12 [BMS536924] (first compound 0.01 µM, partner dose 0.2 µM) belongs 480%; to `Cc1cc(Nc2cc(N3CCN(C)CC3)nc(Sc3ccc(NC(=O)C4CC4)cc3)n2)n[nH]1` [Tozasertib] + CC1(C)NC(=O)N(c2ccc([N+](=O)[O-])c(C(F)(F)F)c2)C1=O [nilutamide] (first compound 0.006 µM, partner dose 1 µM), 85.4%.

Turning to `O=C(/C=C/c1cccnc1)NCCCCC1CCN(C(=O)c2ccccc2)CC1` + O=S(=O)(c1ccccc1)N(CC(F)(F)F)c1ccc(C(O)(C(F)(F)F)C(F)(F)F)cc1 [T0901317] (first compound 0.01 µM, partner dose 1.4 µM), the “cleaved PARP positive nuclei fraction” value stood at 309%. For `CC[C@]1(O)C[C@H]2CN(CCc3c([nH]c4ccccc34)[C@@](C(=O)OC)(c3cc4c(cc3OC)N(C=O)[C@H]3[C@@](O)(C(=O)OC)[C@H](OC(C)=O)[C@]5(CC)C=CCN6CC[C@]43[C@@H]65)C2)C1` [vincristine] + Cc1cc(N2CCOCC2)cc2[nH]c(-c3c(NC[C@@H](O)c4cccc(Cl)c4)cc[nH]c3=O)nc12 [BMS536924] (first compound 0.0001 µM, partner dose 0.2 µM), the “cleaved PARP positive nuclei fraction” value worked out at 99.3%. As for `O=c1[nH]nc(Sc2ncc([N+](=O)[O-])s2)n1-c1ccc2c(c1)OCCO2` + O=c1cc(-c2cccc3c2Sc2ccccc2S3)oc(N2CCOCC2)c1 [KU55933] (first compound 0.2 µM, partner dose 1 µM), the “cleaved PARP positive nuclei fraction” value worked out at 37.3%.

`COc1cc([C@@H]2c3cc4c(cc3[C@@H](O[C@@H]3O[C@@H]5CO[C@@H](C)O[C@H]5[C@H](O)[C@H]3O)[C@H]3COC(=O)[C@H]23)OCO4)cc(OC)c1O` [etoposide] + O=C1NC(=O)/C(=C/c2ccc(-c3ccc(F)cc3O)o2)S1 [AS252424] (first compound 0.02 µM, partner dose 1 µM): the “cleaved PARP positive nuclei fraction” value was determined as 71.5%. Regarding `Cc1cn(-c2cc(NC(=O)c3ccc(C)c(Nc4nccc(-c5cccnc5)n4)c3)cc(C(F)(F)F)c2)cn1` [nilotinib] + CCCCCCCCCCCC1=C(O)C(=O)C=C(O)C1=O [Embelin] (first compound 0.2 µM, partner dose 1.2 µM), the “cleaved PARP positive nuclei fraction” value was 99.5%. As for `O=c1[nH]nc(Sc2ncc([N+](=O)[O-])s2)n1-c1ccc2c(c1)OCCO2` + CCCCCCCCCCCC1=C(O)C(=O)C=C(O)C1=O [Embelin] (first compound 0.2 µM, partner dose 1.2 µM), the “cleaved PARP positive nuclei fraction” value worked out at 128%. In the case of `O=c1[nH]nc(Sc2ncc([N+](=O)[O-])s2)n1-c1ccc2c(c1)OCCO2` + O=C(Nc1cccc(Cl)c1)Nc1ncc(CCNc2ncnc3ccsc23)s1 [SNS314] (first compound 0.2 µM, partner dose 0.0008 µM) it was 98.4%; in that of `CCCCCCCCCCCCCCCCCCOP(=O)([O-])OC1CC[N+](C)(C)CC1` [Perifosine] + NC(=O)Nc1cc(-c2cccc(F)c2)sc1C(=O)N[C@H]1CCCNC1 [AZD7762] (first compound 0.4 µM, partner dose 0.02 µM), 130%.

These data come from the supplement of paper PMC4604168 (melanoma cell lines).
